{
  "source": "patent US20060216730A1",
  "about": "“Novel human protein kinases and protein kinase-like enzymes” (SUGEN, INC., priority 1999, published 2006)",
  "test_system": "kinase genes SGK187, SGK124, SGK386, SGK003, SGK077, SGK093, SGK074, SGK396",
  "assay": "Tissue array gene expression (cDNA libraries on nylon probed with labeled kinase genes; includes compound-treated cell lines)",
  "parameters": "species or system human",
  "key": {"[1]": {"details": "HEPM cells 3d TGFB1, detergent + DNase, Normal, asym cDNA sample"}, "[2]": {"details": "tissue array, cDNA from HEPM cells, 3d treatment, detergent + DNase, asym"}},
  "data": [
    {"substance": "TGFB1", "values": [
      {"measurement": "Normalized expression value SGK003 ID#NA_22", "setting": "[1]", "result": 0},
      {"measurement": "Normalized expression value SGK074 ID#NA_32", "setting": "[1]", "result": "26,232"},
      {"measurement": "Normalized expression value SGK093 ID#NA_31", "setting": "[1]", "result": 0},
      {"measurement": "Normalized expression value SGK124 ID#NA_9", "setting": "[1]", "result": 134},
      {"measurement": "Normalized expression value SGK187 ID#NA_1", "setting": "[1]", "result": 69},
      {"measurement": "Normalized expression value SGK386 ID#NA_21", "setting": "[1]", "result": 0},
      {"measurement": "Normalized expression value SGK396 ID#NA_43", "setting": "[1]", "result": 166},
      {"measurement": "Normalized expression value SGK003 ID#NA_22", "setting": "[2]", "result": 0},
      {"measurement": "Normalized expression value SGK074 ID#NA_32", "setting": "[2]", "result": "26,232"},
      {"measurement": "Normalized expression value SGK093 ID#NA_31", "setting": "[2]", "result": 0},
      {"measurement": "Normalized expression value SGK124 ID#NA_9", "setting": "[2]", "result": 134},
      {"measurement": "Normalized expression value SGK187 ID#NA_1", "setting": "[2]", "result": 69},
      {"measurement": "Normalized expression value SGK386 ID#NA_21", "setting": "[2]", "result": 0},
      {"measurement": "Normalized expression value SGK396 ID#NA_43", "setting": "[2]", "result": 166}
    ]}
  ]
}
